This passage reports binding results from patent US20090324602A1.

Sequences of proteins named here, by UniProt entry; tags and fusion partners are left off. A change or cut given only in a name is not applied to a line headed by its entry.
UniProt Q9NP84: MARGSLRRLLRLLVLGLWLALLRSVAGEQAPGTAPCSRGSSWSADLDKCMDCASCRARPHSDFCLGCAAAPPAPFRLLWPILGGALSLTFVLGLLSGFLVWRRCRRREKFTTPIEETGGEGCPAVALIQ

Results are given in words; binding and its absence hold for the method and conditions named. Some results given as binding are weak or reduced against the parent protein; the word gives no strength.

The target of assay [1] is huFn14-huFc fusion protein (human) (UniProt Q9NP84). Nature of the assay: competition ELISA (legend of FIG. 25). For orientation: In an ELISA, binding on a coated surface is turned into a signal by an enzyme label.
The target is the same in assay [2]. The assay can be described thus: competition ELISA, huFn14-huFc coated, competitor biotinylated murine P4A8 (FIG. 25).
For assay [3] the target is unchanged. Nature of the assay: ELISA on plate-coated hFn14-hFc, biotinylated P3G5 at 0.2 ug/ml, HRP-streptavidin, OD450.

B1: humanized P4A8 (H1/L2) huIgG1, kappa (antibody, V domains shown)
VH: QVQLVQSGAEVKKPGASVKVSCKGSGYTFTDYGMHWVRQAPGQGLEWMGVISTYNGYTNYNQKFKGRVTMTVDKSTSTAYMELRSLRSDDTAVYYCARAYYGNLYYAMDYWGQGTLVTVSS
VL: DIVLTQSPASLAVSLGQRATISCRASKSVSTSSYSYMHWYQQKPGQPPKLLIKYASNLESGVPARFSGSGSGTDFILNIHPMEEDDTAMYFCQHSRELPFTFGGGTKLEIKR
For the molecule B1, the binding result in assay [1] and in assay [2] was “binds” in each case.

B2: humanized P4A8 (H1/L3) huIgG1, kappa (antibody, V domains shown)
VH: QVQLVQSGAEVKKPGASVKVSCKGSGYTFTDYGMHWVRQAPGQGLEWMGVISTYNGYTNYNQKFKGRVTMTVDKSTSTAYMELRSLRSDDTAVYYCARAYYGNLYYAMDYWGQGTLVTVSS
VL: DIVLTQSPASLAVSLGQRATISCRASKSVSTSSYSYMHWYQQKPGQPPKLLIKYASNLESGVPARFSGSGSGTDFILNIHPMEEDDTATYYCQHSRELPFTFGGGTKLEIKR
Take B2: the binding result in assay [1] and in assay [2] was “binds” each time.

B3: humanized P4A8 (H2/L1) huIgG1, kappa (antibody, V domains shown)
VH: QVQLVQSGAEVKKPGASVKVSCKGSGYTFTDYGMHWVRQAPGQGLEWIGVISTYNGYTNYNQKFKGRATMTVDKSTSTAYMELRSLRSDDTAVYYCARAYYGNLYYAMDYWGQGTLVTVSS
VL: DIVLTQSPASLAVSLGQRATISCRASKSVSTSSYSYMHWYQQKPGQPPKLLIKYASNLESGVPARFSGSGSGTDFSLNIHPMEEDDTAMYFCQHSRELPFTFGGGTKLEIKR
As for B3, the binding entry in assay [1] and in assay [2] was “binds” throughout.

B4: humanized P4A8 (H2/L3) huIgG1, kappa (antibody, V domains shown)
VH: QVQLVQSGAEVKKPGASVKVSCKGSGYTFTDYGMHWVRQAPGQGLEWIGVISTYNGYTNYNQKFKGRATMTVDKSTSTAYMELRSLRSDDTAVYYCARAYYGNLYYAMDYWGQGTLVTVSS
VL: DIVLTQSPASLAVSLGQRATISCRASKSVSTSSYSYMHWYQQKPGQPPKLLIKYASNLESGVPARFSGSGSGTDFILNIHPMEEDDTATYYCQHSRELPFTFGGGTKLEIKR
Consider B4, for which the binding result in assay [1] and in assay [2] was “binds” throughout.

B5: humanized P4A8 (H2/L2) huIgG1, kappa (antibody, V domains shown)
VH: QVQLVQSGAEVKKPGASVKVSCKGSGYTFTDYGMHWVRQAPGQGLEWIGVISTYNGYTNYNQKFKGRATMTVDKSTSTAYMELRSLRSDDTAVYYCARAYYGNLYYAMDYWGQGTLVTVSS
VL: DIVLTQSPASLAVSLGQRATISCRASKSVSTSSYSYMHWYQQKPGQPPKLLIKYASNLESGVPARFSGSGSGTDFILNIHPMEEDDTAMYFCQHSRELPFTFGGGTKLEIKR
With B5, the binding entry in assay [1] and in assay [2] was “binds” in each case.

B6: monoclonal antibody 1.P3G5.1E4 (P3G5), murine (antibody, V domains shown)
VH: QVQLQQSGPEVVRPGVSVKISCKGSGYTFTDYGIHWVKQSHAKSLEWIGVISTYNGYTNYNQKFKGKATMTVDKSSSTAYMELARLTSEDSAIYYCARAYYGNLYYAMDYWGQGTSVTVSS
VL: DIVLTQSPASLAVSLGQRATISCRANKSVSTSSYSYMHWYQQKPGQPPKLLIKYASNLESGVPARFSGSGSGTDFILNIHPVEEEDAATYYCQHSRELPFTFGSGTKLEIK
On to B6, for which the binding result in assay [3] is on record as “binds”.
